Results deposited as PubChem BioAssay AID686943 (Drosophila RNAi Screening Center, 2013)
The screen tested about 23,000 reagents; this is a random part of those with a known target gene and a result. 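Extra replicates exist only for a retested subset of genes; insulin dose and duration not given; both raised and lowered dpERK matter.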 A plus sign joins genes that one reagent is predicted to hit. Not given: the amount of reagent, the time to read-out.

- Aim: 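Search across the genome for regulators of signalling from receptor tyrosine kinase to ERK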 (primary screen)
- Cells: Drosophila S2R+ haemocyte-like cells expressing YFP-tagged ERK (Rolled)
- Reagent: long dsRNA against Drosophila genes
- Challenge: insulin stimulation versus unstimulated cells; dose and duration not given
- Detection: 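Antibody staining for doubly phosphorylated ERK divided by ERK-YFP signal, as plate z-scores, in insulin-treated and untreated cells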
- Direction: replicate 1, z-score of dpERK with insulin and replicate 2, z-score of dpERK with insulin: higher = more active ERK per ERK-YFP after insulin; replicate 1, z-score of dpERK under basal conditions: higher = more basal active ERK per ERK-YFP; replicate 1, z-score of ERK-YFP with insulin: higher = more YFP-tagged ERK signal

no.	gene	dsRNA	replicate 1, z-score of dpERK with insulin	replicate 2, z-score of dpERK with insulin	replicate 1, z-score of dpERK under basal conditions	replicate 1, z-score of ERK-YFP with insulin
1	CG6340	DRSC19987	-0.91	-0.93	0.28	0.38
2	Atac2 (Ada2a-containing complex component 2)	DRSC02053	0.27	-0.72	1.53	-0.29
3	swm (second mitotic wave missing)	DRSC02012	0.19	0.54	0.32	0.11
4	swm (second mitotic wave missing)	DRSC21831	-0.34	-0.41	-0.11	-1.43
5	ATPsynbetaL (ATP synthase, beta subunit-like)	DRSC10503	-1.07	0.02	-0.67	0.57
6	SoYb	DRSC02901	0.3	0.32	0.14	0.24
7	CG2247	DRSC19844	0	-0.18	-0.58	0.61
8	CG32266	DRSC08062	0.21	-0.02	0.33	0.09
9	CG4408	DRSC15574	0.03	-0.78	-0.55	0.61
10	CG34054	DRSC05277	0.54	0.38	-0.01	-0.49
11	l(3)mbn (lethal (3) malignant blood neoplasm)	DRSC08793	0.73	0.73	2.59	0.43
12	foi (fear-of-intimacy)	DRSC10719	-1.91	-3.82	-1.49	0.33
13	CG3955	DRSC06859	0.02	-0.17	0.46	-0.7
14	CG14160	DRSC10161	0.21	0.1	-1.54	0.19
15	RhoBTB (Rho-related BTB domain containing)	DRSC11877	0.52	-0.49	0.78	-0.13
16	CG33290	DRSC11493	-0.22	-0.03	-0.16	0.27
17	amon (amontillado)	DRSC13784	-0.61	-0.14	-0.16	0.91
18	amon (amontillado)	DRSC16900	0.66	0.01	0.92	-0.25
19	CR32011 + CR32010 + PlexB + 1 more	DRSC21664	0.34	0.82	1.68	-1
20	sals (sarcomere length short)	DRSC14925	1.02	-0.05	-0.39	-2.82
21	sals (sarcomere length short)	DRSC16113	-0.14	0.24	-0.11	-0.34
22	Papst2 (PAPS transporter 2)	DRSC10924	-0.61	0.28	0.37	0.42
23	CG7800	DRSC16315	0.31	-0.48	-0.12	0.23
24	AstC-R2 (Allatostatin C receptor 2)	DRSC10051	0.8	0.88	-0.21	-0.28
25	RpL18A (Ribosomal protein L18A)	DRSC07538	-2.66	-0.32	-3.15	-2.73
26	Zasp67 (Z band alternatively spliced PDZ-motif protein 67)	DRSC10169	0.5	0.22	-1.59	0.21
27	CG10914	DRSC06010	0.41	0.31	0.11	-0.03
28	eRF3 (eukaryotic translation release factor 3)	DRSC03322	1.04	0.72	1.16	0.12
29	Hsp60D (Heat shock protein 60D)	DRSC02543	-0.41	-0.76	-0.1	0.3
30	CG9812	DRSC04566	-0.47	-0.09	-0.55	0.21
31	CG5854	DRSC15894	-0.78	0.02	1.61	-0.02
32	mAChR-C (muscarinic Acetylcholine Receptor, C-type)	DRSC17890	-0.17	0.22	-0.33	0.47
33	CG43174 (retired record)	DRSC09518	-0.16	0.3	-0.8	-0.12
34	CG13561	DRSC04199	-0.58	-0.02	0	0.9
35	disco-r (disco-related)	DRSC20173	-0.09	-0.18	0.64	0.46
36	disco-r (disco-related)	DRSC20174	0.67	-0.67	0.34	-0.45
37	senju	DRSC02366	0.53	1.18	0.37	-1
38	t (tan)	DRSC17815	-0.2	0.26	-0.68	0.32
39	Dg (Dystroglycan)	DRSC06718	-0.88	0.26	-0.26	0.6

An excerpt from above, showing only “replicate 1, z-score of dpERK under basal conditions”.
SoYb [DRSC02901]	0.14
CG2247 [DRSC19844]	-0.58
